# Test results as given in patent US20210087231A1 (UNIVERSITY OF MARYLAND BALTIMORE, published 2021).
# Chains of the proteins cited; added tags and fusions are not shown.
# UniProt P22366: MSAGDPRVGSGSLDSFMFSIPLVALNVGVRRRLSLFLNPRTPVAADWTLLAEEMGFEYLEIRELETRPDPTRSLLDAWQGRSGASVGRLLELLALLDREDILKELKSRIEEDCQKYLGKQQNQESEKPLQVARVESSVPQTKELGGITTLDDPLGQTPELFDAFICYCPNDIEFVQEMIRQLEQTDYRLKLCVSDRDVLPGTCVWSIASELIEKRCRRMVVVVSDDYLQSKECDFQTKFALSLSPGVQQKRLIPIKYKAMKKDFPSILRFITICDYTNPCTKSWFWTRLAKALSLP
# No constants are given. Whether binding was seen depends on the method and setting. Binding seen in cells or lysates may run through a third protein. Some entries that bind do so weakly or less than the wild type.
# Target: T1, IRAK4 (endogenous, mouse bone marrow-derived macrophages) (mouse) (UniProt Q8R4K2)
# T1 sequence (looked up): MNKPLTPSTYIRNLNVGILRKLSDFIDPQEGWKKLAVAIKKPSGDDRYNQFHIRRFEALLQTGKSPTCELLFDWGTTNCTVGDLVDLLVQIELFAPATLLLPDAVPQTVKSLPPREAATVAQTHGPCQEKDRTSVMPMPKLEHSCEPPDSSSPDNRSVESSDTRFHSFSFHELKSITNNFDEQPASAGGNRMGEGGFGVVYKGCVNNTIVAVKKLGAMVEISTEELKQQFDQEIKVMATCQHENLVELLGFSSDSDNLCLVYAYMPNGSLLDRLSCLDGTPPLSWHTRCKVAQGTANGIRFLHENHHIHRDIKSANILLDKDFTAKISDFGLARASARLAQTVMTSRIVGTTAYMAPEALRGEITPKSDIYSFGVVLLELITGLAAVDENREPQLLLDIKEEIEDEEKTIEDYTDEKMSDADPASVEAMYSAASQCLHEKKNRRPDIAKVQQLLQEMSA
# Assay: co-immunoprecipitation: anti-MyD88 Ab pull-down from lysates of ODN 1668-stimulated mouse BMDM, anti-IRAK4 blot (FIG. 7)
substance,measurement,value
"MyD88 (endogenous, mouse bone marrow-derived macrophages) (from UniProt P22366 1-296)",binding,binds
